Patent US20250230193A1, “CYCLIC COMPOUND HAVING SELECTIVE KRAS INHIBITORY EFFECT ON HRAS AND NRAS” (CHUGAI SEIYAKU KABUSHIKI KAISHA, priority 2022, published 2025)
At least one compound was matched to its structure with a doubt left. Where a SMILES comes first, the peptide text is derived from it. Bridges are numbered along the chain shown (N, C = ends). [ ]: non-standard residue; d: D form. The star is where a group is joined. hPhe(3-Cl-4-CF3) = N[C@@H](CCc1ccc(C(F)(F)F)c(Cl)c1)C(=O)O; NPrPhe(4-CF3) = CCCN[C@@H](Cc1ccc(C(F)(F)F)cc1)C(=O)O; NMeGly(cPent) = CN[C@H](C(=O)O)C1CCCC1; NMeD = CN[C@@H](CC(=O)O)C(=O)O; hPip = O=C(O)[C@@H]1CCCCCN1; Morpholide = C1CN(*)CCO1; Ac5c = NC1(C(=O)O)CCCC1; Sar = CNCC(=O)O

Experiments:
[1] = target: GDP-bound NRAS wild-type protein (Homo sapiens, UniProt P01111); assay: Binding to NRAS by surface plasmon resonance (SPR), Single Cycle Kinetics
[2] = target: GDP-bound HRAS wild-type protein (Homo sapiens, UniProt P01112); assay: Binding to HRAS by surface plasmon resonance (SPR), Single Cycle Kinetics

Structure (SMILES) | NRAS/KRAS (ratio of KD for GDP-bound NRAS wild-type to KD for KRAS) [1] | HRAS/KRAS (ratio of KD for GDP-bound HRAS wild-type to KD for KRAS) [2] | NRAS/KRAS (ratio of KD value with respect to GDP-bound NRAS wild-type protein to KD value with respect to KRAS) [1] | HRAS/KRAS (ratio of KD value with respect to GDP-bound HRAS wild-type protein to KD value with respect to KRAS) [2]
CCCN1C(=O)CN(C)C(=O)CN(C)C(=O)[C@H]([C@@H](C)CC)NC(=O)[C@@H]2CCCCCN2C(=O)C[C@@H](C(=O)N2CCOCC2)N(C)C(=O)[C@H](C2CCCC2)N(C)C(=O)C2(CCCC2)NC(=O)[C@@H]2CCCN2C(=O)[C@H](CCc2ccc(C(F)(F)F)c(Cl)c2)NC(=O)CN(C)C(=O)[C@@H]1Cc1ccc(C(F)(F)F)cc1 [PP0247] ([hPip]I[Sar][Sar][NPrPhe(4-CF3)][Sar][hPhe(3-Cl-4-CF3)]P[Ac5c][NMeGly(cPent)][NMeD]-Morpholide; lactam N-11) | B (a compound having 3 or more and less than 10 is denoted as B) | C (A compound having a KD ratio of 0.1 or more and less than 3 is denoted as C) |  | 
CC[C@H](C)[C@@H]1NC(=O)[C@H](CC(C)C)N(C)C(=O)C[C@@H](C(=O)N2CCOCC2)N(C)C(=O)[C@H](C2CCCC2)N(C)C(=O)C2(CCC2)NC(=O)[C@@H]2CC(F)(F)CN2C(=O)[C@H](CCc2cc(F)c(C(F)(F)F)c(F)c2)NC(=O)CN(C)C(=O)[C@H](Cc2ccc(C(F)(F)F)cc2)N2CCCCC[C@@H](C2=O)N(C)C(=O)CN(C)C1=O [PP0464] |  |  | B (a compound having 3 or more and less than 10 is denoted as B) | B (a compound having 3 or more and less than 10 is denoted as B)
